Assay results taken from patent US20120231141A1, “BITTERNESS-IMPROVING AGENT FOR BITTER FOOD AND DRINK AND ASTRINGENCY-IMPROVING AGENT FOR ASTRINGENT FOOD AND DRINK” (priority 2009, published 2012).

Columns and labels:
Type in all cases: in vivo
[1] = Bitterness evaluation of grapefruit juice (flavor comparison by 10 panelists)
Experimental: 3-n-Butylphthalide was added as a bitterness-improving agent (masking agent for bitterness) of the present invention to commercially available grapefruit juice at the concentrations shown in the following Table 2 to obtain grapefruit juice.

[2] = Bitterness evaluation of carbonated water (flavor comparison by 10 panelists)
Experimental: Sedanenolide was added as a bitterness-improving agent (masking agent for bitterness) of the present invention to sufficiently deaerated pure water at the concentrations shown in the following Table 4, and then carbon dioxide gas was sealed in each bottle at a pressure of 294 KPa to obtain carbonated water of the present invention.

[3] = Astringency evaluation of green tea drink (flavor comparison by 10 panelists)
Experimental: Five thousand grams of hot water (containing 0.03% of sodium ascorbate) of 95° C. was added to 100 g of domestic green tea (second picking tea), followed by extraction for 5 min while sometimes stirring. Subsequently, solid-liquid separation with flannel filter was performed to obtain 4500 g of an extract (Bx 0.7°). This extract was adjusted to Bx 0.5° with deionized water to obtain green tea extract having strong astringency. Sedanenolide was added as a taste-improving agent (masking agent for astringency) of the present invention to the resulting extract at the concentrations shown in the following Table 4 to obtain green tea drinks.

[4] = Bitterness evaluation of green tea drink (flavor comparison by 10 panelists)
Experimental: Five thousand grams of hot water (containing 0.03% of sodium ascorbate) of 60° C. was added to 100 g of Chinese green tea (second picking tea) produced by Josei (heat treatment by steaming), followed by extraction for 5 min while sometimes stirring. Subsequently, solid-liquid separation with flannel filter was performed to obtain 4500 g of an extract (Bx 0.6°). To the extract, 0.04 g of tannase (Kikkoman Corporation: 5000 U/g) was added. The resulting mixture was left to stand at 40° C. for 1 hour to decompose the gallate-type catechin to non-gallate-type catechin (gallate-type catechin has strong astringency, and non-gallate-type catechin has strong bitterness), followed by heating at 90° C. for 1 min to inactivate the enzyme. After cooling to 20° C., the extract was adjusted to Bx 0.5° with deionized water to obtain green tea extract having strong bitterness. Sedanolide was added as a taste-improving agent (masking agent for bitterness) of the present invention to the resulting extract at the concentrations shown in the following Table 3 to obtain green tea drinks.

Q: Which Note ([1]; 3-n-butylphthalide 10 ppm in grapefruit juice, 10 panelists) does the source give for `CCCCC1OC(=O)c2ccccc21` (centres unmarked) [3-n-butylphthalide] here?
A: The Note was “slight spicy aroma”.

Q: And the aroma sensed ([1]; 3-n-butylphthalide 10 ppm, grapefruit juice)?
A: Its aroma sensed is “a slight spicy aroma other than bitterness was also sensed”.

Q: For `CCCC[C@@H]1OC(=O)C2=C1CCC=C2` [sedanenolide], which Note ([2]; sedanenolide 10 ppm in carbonated water, 10 panelists) is on record?
A: The Note was “slight spicy aroma”.

Q: And the aroma sensed ([2]; sedanenolide 10 ppm, carbonated water)?
A: Its aroma sensed is “a slight spicy aroma other than bitterness was also sensed”.

Q: And the Note ([3]; sedanenolide 10 ppm in green tea drink having strong astringency, 10 panelists)?
A: Its Note is “slight spicy aroma”.

Q: And the aroma sensed ([3]; sedanenolide 10 ppm, green tea drink)?
A: The aroma sensed was “a slight spicy aroma other than bitterness was also sensed”.

Q: Which Note ([4]; sedanolide 10 ppm in green tea drink having strong bitterness, 10 panelists) does the source give for `CCCCC1OC(=O)C2=CCCCC21` (centres unmarked) [sedanolide] here?
A: Its Note is “slight spicy aroma”.

Q: And the aroma sensed ([4]; sedanolide 10 ppm, green tea drink)?
A: The aroma sensed was “a slight spicy aroma other than bitterness was also sensed”.
